The target in one assay is T1, ZO-2 (UniProt Q9Z0U1).
T1 sequence: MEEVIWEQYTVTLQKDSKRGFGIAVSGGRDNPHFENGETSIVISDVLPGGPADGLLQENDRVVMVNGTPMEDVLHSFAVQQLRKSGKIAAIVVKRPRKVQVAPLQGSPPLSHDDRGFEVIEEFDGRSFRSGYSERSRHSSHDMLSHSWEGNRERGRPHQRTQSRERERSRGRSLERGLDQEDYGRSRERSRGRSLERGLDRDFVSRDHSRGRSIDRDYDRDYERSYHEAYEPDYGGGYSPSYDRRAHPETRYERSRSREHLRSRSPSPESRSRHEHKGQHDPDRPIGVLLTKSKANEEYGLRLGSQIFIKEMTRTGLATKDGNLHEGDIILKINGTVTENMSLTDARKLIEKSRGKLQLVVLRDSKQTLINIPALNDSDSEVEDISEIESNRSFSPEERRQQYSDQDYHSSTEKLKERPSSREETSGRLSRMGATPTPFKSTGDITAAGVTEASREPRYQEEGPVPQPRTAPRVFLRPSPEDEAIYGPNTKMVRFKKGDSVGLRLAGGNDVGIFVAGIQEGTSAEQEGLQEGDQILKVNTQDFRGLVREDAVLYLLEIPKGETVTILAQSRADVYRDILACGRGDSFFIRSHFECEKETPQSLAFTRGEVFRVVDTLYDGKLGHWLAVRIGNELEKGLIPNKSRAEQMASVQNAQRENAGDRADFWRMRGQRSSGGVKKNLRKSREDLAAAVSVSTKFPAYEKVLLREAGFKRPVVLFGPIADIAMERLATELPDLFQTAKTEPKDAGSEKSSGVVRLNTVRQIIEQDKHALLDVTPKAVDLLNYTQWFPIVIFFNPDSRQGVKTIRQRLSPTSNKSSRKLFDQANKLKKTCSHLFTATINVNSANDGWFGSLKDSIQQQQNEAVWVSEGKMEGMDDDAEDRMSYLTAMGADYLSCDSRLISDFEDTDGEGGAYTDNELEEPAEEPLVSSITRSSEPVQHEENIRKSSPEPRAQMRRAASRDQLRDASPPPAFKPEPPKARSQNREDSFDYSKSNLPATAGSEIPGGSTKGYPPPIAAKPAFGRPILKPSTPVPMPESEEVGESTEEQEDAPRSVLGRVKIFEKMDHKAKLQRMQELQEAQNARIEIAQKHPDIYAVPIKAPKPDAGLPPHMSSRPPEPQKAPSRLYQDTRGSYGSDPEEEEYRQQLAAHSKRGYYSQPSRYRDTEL
The experiment in a line: co-IP; FLAG immunoprecipitation in a heterologous expression system; anti-DYKDDDDK mAb beads 2 h; 20 mM Tris-HCl pH 7.5, 150 mM NaCl, 1% Triton X-100; blots with anti-FLAG, anti-HA, anti-GFP.

Protein sequences, listed by entry. Tags and fused reporters are not part of them.
UniProt Q9QZQ1: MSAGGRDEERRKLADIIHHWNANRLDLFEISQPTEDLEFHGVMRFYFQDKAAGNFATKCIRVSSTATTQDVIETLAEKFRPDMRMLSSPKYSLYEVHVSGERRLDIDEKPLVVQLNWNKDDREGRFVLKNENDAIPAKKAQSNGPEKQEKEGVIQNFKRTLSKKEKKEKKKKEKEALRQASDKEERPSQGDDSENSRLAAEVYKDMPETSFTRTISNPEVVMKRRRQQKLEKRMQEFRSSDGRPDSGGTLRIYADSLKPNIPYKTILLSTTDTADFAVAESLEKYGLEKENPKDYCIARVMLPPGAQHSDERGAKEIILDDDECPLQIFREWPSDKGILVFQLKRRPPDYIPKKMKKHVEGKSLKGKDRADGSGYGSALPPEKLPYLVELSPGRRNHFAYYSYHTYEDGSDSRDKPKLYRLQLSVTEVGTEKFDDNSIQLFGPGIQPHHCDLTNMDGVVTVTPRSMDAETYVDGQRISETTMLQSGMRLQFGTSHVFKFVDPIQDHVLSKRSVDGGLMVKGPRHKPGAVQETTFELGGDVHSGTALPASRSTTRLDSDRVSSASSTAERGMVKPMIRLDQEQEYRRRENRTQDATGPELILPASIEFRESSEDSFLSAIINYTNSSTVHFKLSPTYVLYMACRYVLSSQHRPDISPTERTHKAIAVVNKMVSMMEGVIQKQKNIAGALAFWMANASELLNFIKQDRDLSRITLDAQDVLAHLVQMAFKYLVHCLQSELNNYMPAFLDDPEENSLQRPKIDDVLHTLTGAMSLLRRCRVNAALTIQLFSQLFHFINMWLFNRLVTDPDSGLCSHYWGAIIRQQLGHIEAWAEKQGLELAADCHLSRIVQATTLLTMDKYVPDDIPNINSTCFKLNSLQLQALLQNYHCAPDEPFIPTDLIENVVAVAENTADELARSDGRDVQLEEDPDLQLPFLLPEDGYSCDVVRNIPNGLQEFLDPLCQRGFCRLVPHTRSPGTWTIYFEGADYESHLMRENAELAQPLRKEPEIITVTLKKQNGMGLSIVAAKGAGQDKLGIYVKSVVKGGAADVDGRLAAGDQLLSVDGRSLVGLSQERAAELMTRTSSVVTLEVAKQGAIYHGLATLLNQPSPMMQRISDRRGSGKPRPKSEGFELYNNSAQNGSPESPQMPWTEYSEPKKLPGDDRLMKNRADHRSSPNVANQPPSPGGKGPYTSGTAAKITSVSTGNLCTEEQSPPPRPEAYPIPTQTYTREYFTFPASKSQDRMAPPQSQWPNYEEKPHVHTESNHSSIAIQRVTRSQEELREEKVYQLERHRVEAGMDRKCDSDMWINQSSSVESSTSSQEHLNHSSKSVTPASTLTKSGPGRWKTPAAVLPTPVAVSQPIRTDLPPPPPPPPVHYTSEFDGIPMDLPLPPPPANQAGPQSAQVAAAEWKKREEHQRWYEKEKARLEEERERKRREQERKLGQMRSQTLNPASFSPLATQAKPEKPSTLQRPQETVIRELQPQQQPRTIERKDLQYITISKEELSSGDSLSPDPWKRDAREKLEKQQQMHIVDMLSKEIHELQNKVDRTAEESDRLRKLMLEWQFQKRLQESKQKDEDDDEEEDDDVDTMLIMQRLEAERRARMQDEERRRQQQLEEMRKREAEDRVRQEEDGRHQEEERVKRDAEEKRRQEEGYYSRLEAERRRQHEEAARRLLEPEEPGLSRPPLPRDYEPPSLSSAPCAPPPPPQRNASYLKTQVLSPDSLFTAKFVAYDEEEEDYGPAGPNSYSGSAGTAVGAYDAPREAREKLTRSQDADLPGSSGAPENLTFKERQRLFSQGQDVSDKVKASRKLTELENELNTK
UniProt P39447: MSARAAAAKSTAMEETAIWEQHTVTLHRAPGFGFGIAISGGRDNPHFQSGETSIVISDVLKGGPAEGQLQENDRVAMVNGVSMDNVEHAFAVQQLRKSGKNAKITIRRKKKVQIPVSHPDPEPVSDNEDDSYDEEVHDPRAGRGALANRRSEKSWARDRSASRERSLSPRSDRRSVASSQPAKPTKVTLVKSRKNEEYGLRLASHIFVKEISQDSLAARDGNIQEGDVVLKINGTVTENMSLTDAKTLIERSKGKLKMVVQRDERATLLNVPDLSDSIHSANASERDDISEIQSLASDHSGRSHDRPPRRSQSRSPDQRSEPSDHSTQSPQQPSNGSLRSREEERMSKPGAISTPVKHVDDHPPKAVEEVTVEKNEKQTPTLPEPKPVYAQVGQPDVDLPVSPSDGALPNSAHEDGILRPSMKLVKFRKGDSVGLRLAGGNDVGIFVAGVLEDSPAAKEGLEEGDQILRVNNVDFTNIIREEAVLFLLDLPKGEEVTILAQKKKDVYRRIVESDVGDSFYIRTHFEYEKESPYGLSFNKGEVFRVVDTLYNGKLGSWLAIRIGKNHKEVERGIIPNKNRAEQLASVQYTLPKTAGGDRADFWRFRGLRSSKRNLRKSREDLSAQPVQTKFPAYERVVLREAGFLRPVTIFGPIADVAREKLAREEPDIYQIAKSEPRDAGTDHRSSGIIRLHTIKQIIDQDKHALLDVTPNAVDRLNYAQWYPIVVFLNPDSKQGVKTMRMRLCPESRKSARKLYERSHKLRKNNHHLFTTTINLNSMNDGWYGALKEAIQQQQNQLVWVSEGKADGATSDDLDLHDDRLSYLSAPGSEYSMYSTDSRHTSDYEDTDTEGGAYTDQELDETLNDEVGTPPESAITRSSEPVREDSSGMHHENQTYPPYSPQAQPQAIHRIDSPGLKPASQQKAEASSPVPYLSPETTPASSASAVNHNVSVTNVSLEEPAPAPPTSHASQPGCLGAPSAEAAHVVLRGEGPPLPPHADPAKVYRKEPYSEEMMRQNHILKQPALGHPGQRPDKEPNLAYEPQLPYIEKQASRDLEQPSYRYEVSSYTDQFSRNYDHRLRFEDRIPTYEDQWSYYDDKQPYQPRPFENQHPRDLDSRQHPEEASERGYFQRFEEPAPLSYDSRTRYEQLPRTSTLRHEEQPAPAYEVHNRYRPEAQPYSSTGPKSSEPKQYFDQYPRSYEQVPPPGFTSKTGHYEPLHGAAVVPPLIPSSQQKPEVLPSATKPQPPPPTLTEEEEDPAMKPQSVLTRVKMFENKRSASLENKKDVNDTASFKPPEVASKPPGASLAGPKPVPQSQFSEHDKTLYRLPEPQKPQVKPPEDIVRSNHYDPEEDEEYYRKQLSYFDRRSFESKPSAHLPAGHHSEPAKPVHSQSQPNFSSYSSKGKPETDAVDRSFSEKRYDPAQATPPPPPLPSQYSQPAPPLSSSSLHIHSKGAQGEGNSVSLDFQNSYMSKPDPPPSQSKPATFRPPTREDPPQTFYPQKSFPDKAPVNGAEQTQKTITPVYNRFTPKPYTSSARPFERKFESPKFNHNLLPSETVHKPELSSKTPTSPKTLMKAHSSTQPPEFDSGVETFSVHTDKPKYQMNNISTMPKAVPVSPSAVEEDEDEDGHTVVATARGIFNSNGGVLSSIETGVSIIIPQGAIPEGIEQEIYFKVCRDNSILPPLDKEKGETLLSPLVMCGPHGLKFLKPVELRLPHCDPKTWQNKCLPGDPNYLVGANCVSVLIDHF
UniProt Q6RHR9: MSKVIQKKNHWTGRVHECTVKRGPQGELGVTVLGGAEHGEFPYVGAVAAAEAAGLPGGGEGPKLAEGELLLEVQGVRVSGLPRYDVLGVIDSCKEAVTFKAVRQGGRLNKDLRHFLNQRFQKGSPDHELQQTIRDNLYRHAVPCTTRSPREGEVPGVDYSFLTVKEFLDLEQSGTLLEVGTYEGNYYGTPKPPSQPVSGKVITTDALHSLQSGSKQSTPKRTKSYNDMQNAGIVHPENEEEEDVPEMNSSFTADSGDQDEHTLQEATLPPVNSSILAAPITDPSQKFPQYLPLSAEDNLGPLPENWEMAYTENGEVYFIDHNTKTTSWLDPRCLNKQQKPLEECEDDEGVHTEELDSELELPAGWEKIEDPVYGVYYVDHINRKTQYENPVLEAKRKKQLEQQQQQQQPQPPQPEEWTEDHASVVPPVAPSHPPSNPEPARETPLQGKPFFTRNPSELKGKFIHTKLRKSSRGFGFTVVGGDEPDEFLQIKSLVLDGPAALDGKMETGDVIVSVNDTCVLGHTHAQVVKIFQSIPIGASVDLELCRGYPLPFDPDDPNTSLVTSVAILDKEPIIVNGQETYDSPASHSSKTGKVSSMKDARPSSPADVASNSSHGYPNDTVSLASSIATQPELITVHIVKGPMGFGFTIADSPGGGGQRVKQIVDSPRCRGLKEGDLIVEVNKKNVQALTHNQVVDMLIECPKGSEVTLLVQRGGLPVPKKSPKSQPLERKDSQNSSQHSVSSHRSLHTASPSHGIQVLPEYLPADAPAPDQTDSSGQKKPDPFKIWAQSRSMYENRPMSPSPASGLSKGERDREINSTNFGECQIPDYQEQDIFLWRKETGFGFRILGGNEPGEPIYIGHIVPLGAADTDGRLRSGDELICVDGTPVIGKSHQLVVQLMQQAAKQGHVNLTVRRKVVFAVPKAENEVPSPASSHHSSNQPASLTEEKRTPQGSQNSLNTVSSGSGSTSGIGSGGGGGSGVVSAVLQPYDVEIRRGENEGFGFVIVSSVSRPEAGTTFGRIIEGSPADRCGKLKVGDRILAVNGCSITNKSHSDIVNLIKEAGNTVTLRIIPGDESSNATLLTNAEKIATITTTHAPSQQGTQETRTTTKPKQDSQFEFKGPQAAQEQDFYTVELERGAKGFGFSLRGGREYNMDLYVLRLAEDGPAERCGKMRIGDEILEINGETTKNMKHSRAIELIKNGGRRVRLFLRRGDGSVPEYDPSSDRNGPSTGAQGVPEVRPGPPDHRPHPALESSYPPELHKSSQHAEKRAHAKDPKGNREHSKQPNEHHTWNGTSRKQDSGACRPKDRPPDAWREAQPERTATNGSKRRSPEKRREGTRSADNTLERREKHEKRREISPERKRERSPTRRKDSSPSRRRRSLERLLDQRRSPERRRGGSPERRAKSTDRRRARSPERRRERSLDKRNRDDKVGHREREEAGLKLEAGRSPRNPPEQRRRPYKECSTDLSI

A further assay concerns the target afadin (UniProt Q9QZQ1). The assay is described as above.
Assay [1] deals with T2, FLAG-tagged RASSF10 stably expressed in EpH4 cells (UniProt Q8BL43).
T2 sequence: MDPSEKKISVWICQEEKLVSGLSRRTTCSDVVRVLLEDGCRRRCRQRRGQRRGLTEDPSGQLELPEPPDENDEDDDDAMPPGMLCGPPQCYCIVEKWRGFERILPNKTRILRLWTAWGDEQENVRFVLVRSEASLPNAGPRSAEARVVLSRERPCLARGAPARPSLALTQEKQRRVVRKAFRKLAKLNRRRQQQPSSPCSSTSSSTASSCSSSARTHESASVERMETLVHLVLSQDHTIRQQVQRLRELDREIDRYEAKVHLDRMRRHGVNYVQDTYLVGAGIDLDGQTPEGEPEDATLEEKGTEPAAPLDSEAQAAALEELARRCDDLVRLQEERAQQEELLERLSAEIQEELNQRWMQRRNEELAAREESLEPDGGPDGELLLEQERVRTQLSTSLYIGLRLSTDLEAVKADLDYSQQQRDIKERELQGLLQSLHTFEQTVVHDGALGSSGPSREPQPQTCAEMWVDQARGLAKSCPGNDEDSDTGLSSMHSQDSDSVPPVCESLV
The experiment in a line: co-IP; precipitation of FLAG-RASSF10 stably expressed to a low level in EpH4 cells; endogenous partners detected by blot.

The target of assay [2] is ZO-1 (endogenous, EpH4 cells) (mouse (endogenous in EpH4)) (UniProt P39447). The experiment in a line: co-IP; immunoprecipitation of endogenous proteins from epithelial cells with specific or isotype control antibodies overnight, Protein G-Sepharose; 20 mM HEPES-NaOH pH 7.4, 100 mM NaCl, 5 mM EDTA, 10% glycerol, 1% Triton X-100.
Assay [3] deals with afadin (endogenous, EpH4 cells) (mouse (endogenous in EpH4)) (UniProt Q9QZQ1). The description is as above.
For assay [4], the target named is T3, ZO-2 (endogenous, EpH4 cells) (mouse (endogenous in EpH4)) (UniProt Q9Z0U1).
T3 sequence: T1 sequence
Described as above.

For the next assay, the target named is T4, MAGI-3 (UniProt Q9EQJ9).
T4 sequence: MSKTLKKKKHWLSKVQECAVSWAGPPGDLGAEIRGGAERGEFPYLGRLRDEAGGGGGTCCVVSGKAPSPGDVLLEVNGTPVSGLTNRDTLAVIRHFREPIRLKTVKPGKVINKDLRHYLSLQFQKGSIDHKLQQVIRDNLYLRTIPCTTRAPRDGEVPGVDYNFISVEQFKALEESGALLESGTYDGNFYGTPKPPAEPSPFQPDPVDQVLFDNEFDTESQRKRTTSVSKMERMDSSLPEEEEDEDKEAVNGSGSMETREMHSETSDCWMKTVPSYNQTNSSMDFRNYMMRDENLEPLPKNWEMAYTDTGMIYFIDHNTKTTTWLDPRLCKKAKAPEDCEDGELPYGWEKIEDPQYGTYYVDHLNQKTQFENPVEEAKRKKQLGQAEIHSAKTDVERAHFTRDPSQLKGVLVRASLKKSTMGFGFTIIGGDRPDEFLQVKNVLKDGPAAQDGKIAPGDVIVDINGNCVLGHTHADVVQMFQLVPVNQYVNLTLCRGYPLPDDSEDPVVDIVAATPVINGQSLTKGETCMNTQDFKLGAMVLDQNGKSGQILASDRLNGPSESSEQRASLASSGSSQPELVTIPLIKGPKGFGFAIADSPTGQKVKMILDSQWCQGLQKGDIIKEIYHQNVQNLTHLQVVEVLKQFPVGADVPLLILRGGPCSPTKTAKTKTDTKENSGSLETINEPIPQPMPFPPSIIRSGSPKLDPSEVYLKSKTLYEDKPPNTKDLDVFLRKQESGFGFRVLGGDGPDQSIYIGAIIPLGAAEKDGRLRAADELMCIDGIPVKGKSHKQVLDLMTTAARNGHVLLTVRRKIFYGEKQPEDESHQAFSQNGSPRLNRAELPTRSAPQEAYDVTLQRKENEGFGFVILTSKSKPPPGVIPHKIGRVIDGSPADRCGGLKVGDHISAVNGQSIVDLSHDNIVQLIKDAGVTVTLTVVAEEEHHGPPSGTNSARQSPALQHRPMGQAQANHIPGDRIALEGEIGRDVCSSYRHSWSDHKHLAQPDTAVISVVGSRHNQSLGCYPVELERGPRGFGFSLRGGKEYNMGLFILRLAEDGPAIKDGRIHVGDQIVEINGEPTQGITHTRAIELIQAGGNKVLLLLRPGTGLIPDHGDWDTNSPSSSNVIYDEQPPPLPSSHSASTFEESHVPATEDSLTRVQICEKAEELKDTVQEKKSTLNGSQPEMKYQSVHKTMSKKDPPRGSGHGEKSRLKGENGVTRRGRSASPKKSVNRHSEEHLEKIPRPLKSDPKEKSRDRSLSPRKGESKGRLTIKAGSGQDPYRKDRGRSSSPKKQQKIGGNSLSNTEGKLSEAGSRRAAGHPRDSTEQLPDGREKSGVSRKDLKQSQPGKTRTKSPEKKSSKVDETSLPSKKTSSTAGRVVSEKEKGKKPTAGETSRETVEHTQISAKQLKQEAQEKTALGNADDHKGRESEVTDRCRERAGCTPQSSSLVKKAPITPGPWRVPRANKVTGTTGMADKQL
The experiment in a line: co-IP; FLAG immunoprecipitation in a heterologous expression system; anti-DYKDDDDK mAb beads 2 h; 20 mM Tris-HCl pH 7.5, 150 mM NaCl, 1% Triton X-100; blots with anti-FLAG, anti-HA, anti-GFP.

Results are given in words; binding and its absence hold for the method and conditions named. In cells and extracts the contact can be indirect. Some binding calls cover weakened binding; strength is not graded here. For some assays here: Tags and fused reporters may be left off the sequences shown.

MAGI-1 (from UniProt Q6RHR9 1-1471): the binding entry with ZO-2 and with afadin was “binds” in each case.

On to “MAGI-1 (endogenous, EpH4 cells) (from UniProt Q6RHR9 1-1471)”, for which the binding entry in assay [1], in assay [2], in assay [3] and in assay [4] was “binds” throughout.

B1: RASSF10, full-length (FL) (protein, UniProt Q8BL43 1-508)
chain: T2 sequence
For the molecule B1, the binding result with MAGI-3 is “binds”.

B2: MAGI-3 (endogenous, EpH4 cells) (protein, UniProt Q9EQJ9 1-1476)
chain: T4 sequence
Take B2: the binding entry in assay [1], in assay [2], in assay [3] and in assay [4] was “binds” in each case.

The record behind these values is PMC7954791, “MAGIs regulate aPKC to enable balanced distribution of intercellular tension for epithelial sheet homeostasis” (Communications Biology, 2021).
